# Source: paper PMC7819943, “Rice protein-binding microarrays: a tool to detect cis-acting elements near promoter regions in rice”
# This is one part of the list.
# Biological target: T1, OsSMF1 (Oryza sativa, UniProt Q6ZLB0 1-436)
# T1 sequence: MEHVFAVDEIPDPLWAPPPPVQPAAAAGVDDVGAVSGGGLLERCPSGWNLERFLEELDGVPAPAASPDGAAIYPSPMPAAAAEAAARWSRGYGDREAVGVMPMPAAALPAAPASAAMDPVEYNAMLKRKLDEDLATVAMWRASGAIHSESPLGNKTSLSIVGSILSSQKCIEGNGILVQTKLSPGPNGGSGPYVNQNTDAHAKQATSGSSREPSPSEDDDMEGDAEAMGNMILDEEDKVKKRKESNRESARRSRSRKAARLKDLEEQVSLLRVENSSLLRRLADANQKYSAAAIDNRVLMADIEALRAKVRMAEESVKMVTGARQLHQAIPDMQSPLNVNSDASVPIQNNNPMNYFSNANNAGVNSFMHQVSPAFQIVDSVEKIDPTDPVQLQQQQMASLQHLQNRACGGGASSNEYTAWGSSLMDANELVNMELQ
# Assay: protein-binding microarray (RPBM); PBS, 2% BSA, 51.3 ng/ul salmon testes DNA, 50 uM zinc acetate, 200 nM TF, 25 C, 1 h; high values mean tight binding
# Settings: protein: recombinant; tags: N-terminal polyhistidine and DsRed monomer fusion (pET32a); chain copies: 2; label: CyDye5-dUTP incorporated in the synthesized complementary strand; 3' TTTTT single-stranded linker to array surface; dsDNA, one strand shown
# Summary of the method: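 Transcription factors were made in E. coli BL21-CodonPlus as N-terminal fusions to a polyhistidine tag and DsRed, then purified on Ni–NTA. After primer extension with Cy5-dUTP and blocking with 2% BSA, a custom Agilent array was exposed for 1 h at 25 °C to 200 nM protein in PBS, 2% BSA, salmon testes DNA and 50 µM zinc acetate. Washed arrays were scanned on an Axon 4000B, and the binding signal is per-feature fluorescence intensity in arbitrary units.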
row,Sequence,binding signal
1,TTACCTTTTGGGGCTGTTCAAATTGATGTCATTTCAAATCCGGAGTCACCTAGTGCAG,15300 fluorescence intensity (a.u.)
2,TTCTAACTCACACGTGTACTTTTATATTTAATATATTTATCGGAGTCACCTAGTGCAG,7220 fluorescence intensity (a.u.)
3,GCTTTTGTGTTGGCCCGATTGAGATGTGTCATCCGTGACGCGGAGTCACCTAGTGCAG,6190 fluorescence intensity (a.u.)
4,AGAGGGTATACCTAACCCGTAACCCTGACAATTTCCTTAGCGGAGTCACCTAGTGCAG,7360 fluorescence intensity (a.u.)
5,GTGAGGTACCAAAATTTGTTGCTAGCACCTTCAATTTTACCGGAGTCACCTAGTGCAG,3450 fluorescence intensity (a.u.)
6,TCCCAAAATCGGAAACCCGTACTATCTCCGTCACACCCCTCGGAGTCACCTAGTGCAG,4120 fluorescence intensity (a.u.)
7,CCCCTACCCCACCCACTGACACATCCTCCCCACGCTACGCCGGAGTCACCTAGTGCAG,6190 fluorescence intensity (a.u.)
8,CCCGCTGCCACCTCCGAGTCCACTTCTCGCCACCCTCTGCCGGAGTCACCTAGTGCAG,4400 fluorescence intensity (a.u.)
9,AAACCATGTCTGACAATTACGCACGTGTGATTACACTTTCCGGAGTCACCTAGTGCAG,3480 fluorescence intensity (a.u.)
10,CATTAATGCTCCATACATGTGTTAAGCATCTGATGTGTTACGGAGTCACCTAGTGCAG,4790 fluorescence intensity (a.u.)
11,GACAGCAGCAGAGGAGTTCGCAAGACTTCTGACAGGTGGGCGGAGTCACCTAGTGCAG,3180 fluorescence intensity (a.u.)
12,ATATGTTGAAGTGTCGAAACGGCTTTCGCTCCCACTAGGTCGGAGTCACCTAGTGCAG,29400 fluorescence intensity (a.u.)
13,GTGACAGGTGCCACCTGTTATGAAGACCTACGAACAGTGGCGGAGTCACCTAGTGCAG,3270 fluorescence intensity (a.u.)
14,CCGGTCATGTTTTCAGAAATGGAATCGGCCGGTCAGATTTCGGAGTCACCTAGTGCAG,3360 fluorescence intensity (a.u.)
15,ACGGGCAGTCGGGCACGACCGAGACCCTCGCGCCCACGCACGGAGTCACCTAGTGCAG,26500 fluorescence intensity (a.u.)
16,TACGTTACCCTGCCGGATGATTGCCCTACCCTCATCTCATCGGAGTCACCTAGTGCAG,25400 fluorescence intensity (a.u.)
17,ATACTATTATATCGGGCCTCCACGGAGAGCGGGGACGGGGCGGAGTCACCTAGTGCAG,3380 fluorescence intensity (a.u.)
18,GCAAGTCCAACTCCAACTCAGCGCCTCCGCTCCTCCTCACCGGAGTCACCTAGTGCAG,6960 fluorescence intensity (a.u.)
19,ACCCATTTTCAGTGGCAGGGTTATTGACACCACACTCACACGGAGTCACCTAGTGCAG,3140 fluorescence intensity (a.u.)
20,TTGACTTGTACATAGTAATGATTGGCAGGTAATGACGTACCGGAGTCACCTAGTGCAG,3280 fluorescence intensity (a.u.)
21,AGATCCAAACACGTCACAATATACCATCACTGCGGCCGCCCGGAGTCACCTAGTGCAG,7500 fluorescence intensity (a.u.)
22,CGCACCGACCGGTCCACGTGGAACGGACGGCGAGGATGAACGGAGTCACCTAGTGCAG,6560 fluorescence intensity (a.u.)
23,AATATACAACACTATATTATTAATGCAGTCCAATCGATATCGGAGTCACCTAGTGCAG,37000 fluorescence intensity (a.u.)
24,GATAAAATGTGTACAATGTCAGCATCACATGGCTCCCACACGGAGTCACCTAGTGCAG,4330 fluorescence intensity (a.u.)
25,GTTGGAAAGGATGACGAGAATTGCGTGTCACCCTCTTCCCCGGAGTCACCTAGTGCAG,9160 fluorescence intensity (a.u.)
26,ACTTACTGATAAGCACGCCAGACCACCTCACTGGCTCACTCGGAGTCACCTAGTGCAG,3600 fluorescence intensity (a.u.)
27,TCTTTCTTTCCAGCCACGACAGGCAAACCTACCCCAACGCCGGAGTCACCTAGTGCAG,3190 fluorescence intensity (a.u.)

# 3 records drawn at random from the list so far:
row,Sequence,binding signal
20,TTGACTTGTACATAGTAATGATTGGCAGGTAATGACGTACCGGAGTCACCTAGTGCAG,3280 fluorescence intensity (a.u.)
15,ACGGGCAGTCGGGCACGACCGAGACCCTCGCGCCCACGCACGGAGTCACCTAGTGCAG,26500 fluorescence intensity (a.u.)
18,GCAAGTCCAACTCCAACTCAGCGCCTCCGCTCCTCCTCACCGGAGTCACCTAGTGCAG,6960 fluorescence intensity (a.u.)

# The list continues:

row,Sequence,binding signal
1,GTACGTCGCACTGGGGAAGCTGCTCACGTGGACGGAATGGCGGAGTCACCTAGTGCAG,7020 fluorescence intensity (a.u.)
2,CCCTGTTTGAAGCAGTGACGCAATGGTGTATAATTTGGGCCGGAGTCACCTAGTGCAG,4830 fluorescence intensity (a.u.)
3,GGAGAGGGGTGATGAGTGATGACGTGATCCCATTGTATTTCGGAGTCACCTAGTGCAG,4970 fluorescence intensity (a.u.)
4,ACACCATAACGCCTCGTCGGCATGATGTTAGCGCCTTCTTCGGAGTCACCTAGTGCAG,4080 fluorescence intensity (a.u.)
5,CCAGTCTATTCTTATCCACGTTGCTGGTCGACTTAGGACCCGGAGTCACCTAGTGCAG,4000 fluorescence intensity (a.u.)
6,GAAGGCAGGGTCGAGCGGTCAGTGGTGCGCATCTCCGACACGGAGTCACCTAGTGCAG,3250 fluorescence intensity (a.u.)
7,CGACATGTCGTCCCCACCGCCGCAGCGCCCGCCAGCTACGCGGAGTCACCTAGTGCAG,31900 fluorescence intensity (a.u.)
8,TACTCCCCTCGTTCTCACGACACATCACCAATCTGTACGACGGAGTCACCTAGTGCAG,6850 fluorescence intensity (a.u.)
9,CTACCCCTCCTTATCCAGTCCTCCACGTCAACAAAAGAAACGGAGTCACCTAGTGCAG,6350 fluorescence intensity (a.u.)
10,CGGTCCCCAGTCCCCACGCGGGCGCCCTCACGTGGAACGCCGGAGTCACCTAGTGCAG,4860 fluorescence intensity (a.u.)
11,GAGCTCCATCTGCTTGCACTCGTGTGATCCTCTCCTTGGCCGGAGTCACCTAGTGCAG,3300 fluorescence intensity (a.u.)
12,ATTCAACTTGTACATCTCGTAACGAACAGTAACAAACAGCCGGAGTCACCTAGTGCAG,3260 fluorescence intensity (a.u.)
13,ATGCATAGCGAGAGCCAAGTGGCAATCCTCTAGTACACTCCGGAGTCACCTAGTGCAG,3450 fluorescence intensity (a.u.)
14,CCGTTCGCCACGTCCATCCGTTTTCTGTGCCATAGGCAGGCGGAGTCACCTAGTGCAG,7170 fluorescence intensity (a.u.)
15,TTGTGTGGTAACCGGGCAAGCGACGTGGACATGGAATCTGCGGAGTCACCTAGTGCAG,6390 fluorescence intensity (a.u.)
16,TTCGGTACACATCACAGAATAATGTATACAACTAAAAGTACGGAGTCACCTAGTGCAG,3410 fluorescence intensity (a.u.)
17,CCGACGCTGCAGGCGTCAAGGACGTGGACGCGAAGTGGATCGGAGTCACCTAGTGCAG,3680 fluorescence intensity (a.u.)
18,AAATGGAGGTGGTATTTAATTTATAAGCTACTCCTCCGTACGGAGTCACCTAGTGCAG,16900 fluorescence intensity (a.u.)
19,AAACGCCAAAGGATCGGTGAAAGGTTTGCCACGTCATCGACGGAGTCACCTAGTGCAG,32000 fluorescence intensity (a.u.)
20,AGATAAGGATCAGCCAACTAATTTGGCCTTGACTCACGCCCGGAGTCACCTAGTGCAG,4640 fluorescence intensity (a.u.)
21,GTGAAACGTGGAAAGGCTAACGGTGATTCACGCCATCCTTCGGAGTCACCTAGTGCAG,3780 fluorescence intensity (a.u.)
22,TCGACTCACTCAATCCAGTCGTCACCCCAGCTCACACGCACGGAGTCACCTAGTGCAG,3650 fluorescence intensity (a.u.)
23,AGATTGAAACTTATCTCCTTGTCGCCTCGTCATGGTGGGGCGGAGTCACCTAGTGCAG,5820 fluorescence intensity (a.u.)
24,GTAGCCGTTGAGGCTACGAACTCCATGTGTTACGTGTAGCCGGAGTCACCTAGTGCAG,5900 fluorescence intensity (a.u.)
25,CTATTTGCCACCTCTATCTCCACATGTGTCTATGACATGTCGGAGTCACCTAGTGCAG,3730 fluorescence intensity (a.u.)
26,ATAAATGCATTACATCACTCTTTCCTGCCTTATTAGTATGCGGAGTCACCTAGTGCAG,6050 fluorescence intensity (a.u.)
27,CACTAAACGGCCAAAATCTTCCATCGTATAGTTACGTCACCGGAGTCACCTAGTGCAG,4380 fluorescence intensity (a.u.)
